From patent US12161653B2, “Treatment of submental fat” (Allergan Sales, LLC, priority 2011, dated 2024)
For at least one compound, name, drawing or mass did not settle the structure.

Tests used:
[1] = tested on: caudal lateral fat pads; experiment: Fat pad necrosis in Zucker rats after a single injection; type: in vivo; details: concentrations below the critical level to form micelles (<0.25%)
Experimental: In the rats study, 8 rats received a single injection into the caudal lateral fat pads of 2.5 mL deoxycholic acid at 1%, 0.5%, 0.25%, or 0.1% concentrations, or 2.5 mL vehicle (0.9% benzyl alcohol in water).

[2] = tested on: subcutaneous abdominal tissue; experiment: Clinical trial: histological changes, efficacy and safety by concentration; type: in vivo, human; details: for clinical efficacy and safety profile: versus 2.0% and 4.0%
Experimental: These findings are consistent with the increased intensity of adverse effects at the higher concentrations and larger volumes administered (0.4 mL/injection) in clinical trials. […] Concentrations at or below 0.25% were not tested, as they are at or below the concentration necessary to form micelles. The formation of micelles is essential for lipolytic activity.
A total of 274 subjects participated in 6 Phase ½ clinical studies that were conducted with SDI. Of these, 3 studies (n=179) evaluated SDI for the treatment of submental fat (SMF). Two studies evaluated SDI for the treatment of superficial lipoma. One study (SDI-08-10) evaluated the histological effects of SDI in subcutaneous abdominal tissue in subjects scheduled to undergo abdominoplasty.

C[C@H](CCC(=O)O)[C@H]1CC[C@H]2[C@@H]3CC[C@@H]4C[C@H](O)CC[C@]4(C)[C@H]3C[C@H](O)[C@]12C [deoxycholic acid]
fat necrosis [1]: did not result in fat necrosis | clinical efficacy and safety profile ([2]; 0.5%): better clinical efficacy and safety profile | clinical efficacy and safety profile ([2]; 1.0%): better clinical efficacy and safety profile | efficacy at the earlier time points ([2]; 2.0%): decreased efficacy | efficacy at the earlier time points ([2]; 4.0%): decreased efficacy
